Assay [1] has as its target T1, GST-NXF1:p15 protein complex (UniProt Q9UBU9).
T1 sequence 1: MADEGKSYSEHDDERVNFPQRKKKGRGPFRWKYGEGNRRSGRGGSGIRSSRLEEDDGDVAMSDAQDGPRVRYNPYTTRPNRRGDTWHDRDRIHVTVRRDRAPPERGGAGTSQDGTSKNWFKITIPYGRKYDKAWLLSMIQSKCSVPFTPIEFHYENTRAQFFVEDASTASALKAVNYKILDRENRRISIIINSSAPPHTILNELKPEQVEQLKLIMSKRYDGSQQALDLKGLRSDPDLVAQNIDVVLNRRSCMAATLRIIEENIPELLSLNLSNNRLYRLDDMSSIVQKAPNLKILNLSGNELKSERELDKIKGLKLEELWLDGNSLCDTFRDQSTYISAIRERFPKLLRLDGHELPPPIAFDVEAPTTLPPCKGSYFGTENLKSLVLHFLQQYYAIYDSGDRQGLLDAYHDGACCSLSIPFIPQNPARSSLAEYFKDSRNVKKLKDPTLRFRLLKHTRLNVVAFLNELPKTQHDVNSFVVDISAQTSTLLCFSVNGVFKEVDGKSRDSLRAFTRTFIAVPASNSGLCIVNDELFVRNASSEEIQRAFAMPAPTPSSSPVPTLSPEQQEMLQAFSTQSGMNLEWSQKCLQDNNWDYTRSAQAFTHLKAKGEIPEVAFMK
T1 sequence 2: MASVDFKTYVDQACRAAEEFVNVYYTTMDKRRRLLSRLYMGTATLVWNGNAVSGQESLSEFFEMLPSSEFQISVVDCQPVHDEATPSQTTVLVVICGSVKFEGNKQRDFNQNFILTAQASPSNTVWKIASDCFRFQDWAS
Kind of assay: pull-down; GST-NXF1:p15 immobilised on glutathione-coated sepharose beads; 35S-radiolabelled proteins translated in reticulocyte lysate; RB-100 buffer (25 mM HEPES pH 7.5, 100 mM potassium acetate, 10 mM MgCl2, 1 mM DTT, 10% glycerol, 0.5% Triton X-100), RNase A 20 ng/μl, 4 °C, 1 h; PhosphoImaging; only the target purified.

For assay [2], the target named is T1, GST-NXF1:p15 protein complex. Kind of assay: pull-down; GST-NXF1:p15 immobilised on glutathione-coated sepharose beads; 25 μg purified recombinant 6His-tagged PGC-1α domains from E. coli; RB-100 buffer, RNase-treated, 4 °C, 1 h; detection by anti-6xHis western blot; both purified. (Immunoblotting shows a protein as a band on a membrane.)

Results are given in words; binding and its absence hold for the method and conditions named. For some assays here: In cells and extracts the contact can be indirect. Some binding calls cover weakened binding; strength is not graded here. Tags and fused reporters may be left off the sequences shown.

B1: 35S-radiolabelled PGC-1α RS domain (aa565–633), synthesised in rabbit reticulocytes (domain or fragment, UniProt Q9UBK2 565-633)
chain: MRSRSRSFSRHRSCSRSPYSRSRSRSPGSRSSSRSCYYYESSHYRHRTHRNSPLYVRSRSRSPYSRRPR
modifications: 35S-methionine radiolabelled
Regarding B1, in assay [1], the binding entry is on record as “binds”.

B2: GB1-6His-tagged PGC-1α RS domain (aa565–633), bacterially expressed and stringently purified (domain or fragment, UniProt Q9UBK2 565-633)
chain: B1 chain
Regarding B2, in assay [2], the binding result was “binds”.

Values taken from paper PMC10485026.
